# From PubChem BioAssay AID651640 (Broad Institute, 2012)
# Screen size: about 350,000 compounds; about 6,000 (1.7%) were called active. The inconclusive results got no clear call from the source; some entries with a clear call stand among them for comparison. Cut-off read from the data, not from the text of the source: active = CPE inhibition above about 20% (passing the limit was not always enough); inconclusive = no clear call, values can overlap the other calls; tested in BHK-21 cells. Some compounds were tested as several samples or in several runs, with calls that do not always agree.
# Experiment: protection of cells from dengue 2 killing – plate reader, single concentration, primary screen (AID 651640);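 note: 0% = median of neutral control wells and 100% = median of positive control wells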
# Conditions: DENV2-infected cells, cytopathic effect rescue, at 9.99 µM, active compounds read high
row,Compound,CPE inhibition
1,Cn1c(=O)c2c(-c3ccccc3)n(-c3cc([N+](=O)[O-])ccc3O)cc2n(C)c1=O,inactive: 16.2%
2,CC(C)CC#Cc1ccc2c(c1)O[C@@H](CN(C)C(=O)Cc1ccccc1)[C@H](C)CN([C@H](C)CO)S2(=O)=O,inactive: -1.69%
3,O=C(Nc1cc(=O)[nH]c(=O)[nH]1)c1cccc(C(F)(F)F)c1,inconclusive: 43.9%
4,Cc1c(C(=O)NCc2ccc3c(c2)OCO3)sc(=O)n1Cc1ccc(S(=O)(=O)N(C)C)cc1,inactive: -8.91%
5,Cn1c(=O)c(C(N)=S)cn(-c2ccccc2)c1=O,inactive: 4.07%
6,CCC(=O)N[C@H]1C=C[C@@H](CC(=O)NCC2CC2)O[C@@H]1CO,inconclusive: 51.8%
7,Cc1cc(NC(=O)CCC(=O)N(Cc2ccccc2)C(C(=O)NC2CCCC2)c2ccco2)no1 (configuration not stated),inactive: -1.48%
8,O=C(CN1CCOCC1)N[C@@H]1CC[C@@H](CCn2cc(C3CCCCC3)nn2)O[C@@H]1CO,inconclusive: 29.9%
9,COc1ccc2c3c(n(C)c2c1)[C@@H](CO)N(C(=O)Nc1cccc(F)c1)CC31CCN(C)CC1,inconclusive: 23.9%
10,O=C(Nc1cccc(Cl)c1)N1[C@@H]2CNC[C@H]1C2c1ccc(-c2ccccc2)cc1 (some centres not stated),active: 66.7%
11,CSc1nc(N2CCOCC2)nc2ccc(C)cc12,inconclusive: 25.1%
12,COc1ccccc1NS(=O)(=O)c1cc(NC(=O)c2sc3cc(Cl)ccc3c2Cl)ccc1C,inactive: 6.49%
13,Cc1cccc(S(=O)(=O)NC(=O)C2(C)CCN2C(=O)CCC2CCCC2)c1 (configuration not stated),inconclusive: 37.8%
14,O=C1N[C@@H](c2ccccc2)COC(=O)[C@@H](Cc2ccc(F)cc2)C/C=C\C[C@H]1CC(=O)N(CCO)Cc1ccccc1,inconclusive: 64.7%
15,COc1cccc(S(=O)(=O)Nc2ccc3c(c2)OC[C@H](C)N(Cc2ccccc2F)C[C@H](C)[C@@H](OC)CN(C)C3=O)c1,inconclusive: 43.2%
16,Cc1cccc(NC(=S)NC(C)CCc2ccccc2)c1 (configuration not stated),active: 45.3%
17,CCNC(=O)Nc1ccc2c(c1)C(=O)N(C)[C@@H]1CC[C@H](CC(=O)N[C@@H](C)c3ccccc3)O[C@@H]1CO2,inconclusive: 30.5%
18,COc1cccc(/C=N/n2c(-c3cc(C)[nH]n3)n[nH]c2=S)c1O,inconclusive: 22.8%
19,O=C(O)C[C@H]1C[C@@H]2c3cc(NC(=O)Cc4ccncc4)ccc3O[C@@H]2[C@H](CO)O1,inactive: -18%
20,C[C@H](CO)N1C[C@H](C)[C@@H](CN(C)C(=O)Cc2ccccc2)OCCCC[C@H](C)Oc2ccc(NC(=O)Nc3cccc4ccccc34)cc2C1=O,active: 23.6%
21,Cc1cc(OCc2cc(C(=O)N(C)C(C)c3ccccn3)no2)cc(C)c1Cl (configuration not stated),active: 31.3%
22,CCOc1ccc(C(=O)Nc2cc(Cl)ccc2-n2cncn2)cc1OC,inconclusive: 23.8%
23,OCC(O)CN1CCN(c2ccccc2)CC1 (configuration not stated),inactive: 11.7%
24,CNC[C@H]1Oc2c(NS(=O)(=O)c3ccc(Cl)cc3)cccc2C(=O)N([C@H](C)CO)C[C@H]1C,active: 79.5%

row,Compound,CPE inhibition
1,Cc1noc(C)c1NC(=O)N(C)C[C@@H]1Oc2ncc(C#CCN(C)C)cc2C(=O)N([C@@H](C)CO)C[C@@H]1C,active: 24.6%
2,CCC(C(=O)NNC(=O)c1cnccn1)c1ccccc1 (configuration not stated),inconclusive: 51.5%
3,O=c1ccn(C2CC(O)C(COC(c3ccccc3)(c3ccccc3)c3ccccc3)O2)c(=O)[nH]1 (configuration not stated),active: 47.5%
4,Cc1nc(N)nc(SCc2ccc([N+](=O)[O-])cc2)c1N,inactive: 5.04%
5,O=C(Nc1ccc(SC(F)F)cc1)C1CC(=O)N(Cc2ccccc2)C1 (configuration not stated),active: 21.8%
6,COc1ccc(CNC(=O)Nc2nc(C(N)c3ccccc3)cs2)cc1 (configuration not stated),inconclusive: 49%
7,COc1ccc(C#Cc2ccc([C@H]3[C@H]4CN(C)CCCCN4[C@H]3CO)cc2)cc1,inactive: -22%
8,Cc1c(C)c2c(OCC(=O)N3CCC(O)CC3)cc3c(c2oc1=O)CCC(C)(C)O3,active: 46.6%
9,CC1(c2nnnn2Cc2ccccc2)CCC(=O)N1CCOc1ccccc1 (configuration not stated),active: 92.1%
10,COc1ccc(CCNC(=O)c2c(C)nn(CC(C)C)c2Cl)cc1OC,active: 95.3%
11,O=C(NCCc1ccccc1)c1ccc(-c2ccc(F)c(F)c2)c2ccoc12,inconclusive: 27.3%
12,CCc1cc(CNC(=O)c2ccc3nc(Cc4ccc(OC)c(OC)c4)oc3c2)on1,inconclusive: 24%
13,CC[C@]12c3[nH]c4cc(-c5ccco5)ccc4c3CCN1C(=O)[C@@H](CC(=O)NCc1ccco1)C[C@@H]2C(=O)N1CCN(C(=O)c2ccco2)CC1,inconclusive: 28.4%
14,CC(C)C#Cc1ccc2c(c1)O[C@@H](CN(C)C(=O)c1ccncc1)[C@H](C)CN([C@@H](C)CO)S2(=O)=O,inconclusive: 39.4%
15,C[C@@H]1CCCCO[C@@H](CN(C)C(=O)Cc2ccccc2)[C@@H](C)CN([C@H](C)CO)C(=O)c2cc(NC(=O)C3CCCCC3)ccc2O1,inconclusive: 53.7%
16,COCC(=O)N(C)C[C@H]1Oc2cc(C3=CCCC3)ccc2S(=O)(=O)N([C@H](C)CO)C[C@@H]1C,inconclusive: 29.5%
17,c1ccc(-c2nnc(-c3ccncc3)nc2-c2ccccc2)cc1,inconclusive: 27.2%
18,CC(C)c1ccc(S(=O)(=O)N2CCN(C(=O)n3ccnc3)CC2)cc1,active: 31.1%
19,Cc1cccc(N2CC(C(=O)Nc3nnc(SCC(=O)NCC4CCCO4)s3)CC2=O)c1 (configuration not stated),inconclusive: 26.1%
20,O=C(Nc1ccc(S(=O)(=O)NC2=NCCCCC2)cc1)c1ccc(Cl)c([N+](=O)[O-])c1,inconclusive: 23.4%
21,CN1CCN(CCCNC(=O)c2ccc(/C=C3\Sc4ccccc4N(Cc4ccccc4F)C3=O)cc2)CC1,inactive: -6.64%
22,C[C@@H]1CCCCO[C@@H](CN(C)Cc2ccc3c(c2)OCO3)[C@H](C)CN([C@H](C)CO)C(=O)c2cc(NS(=O)(=O)c3cccs3)ccc2O1,active: 38.2%
23,COCC(=O)N1CC2(C1)CN(C(=O)NC1CCCC1)[C@H](CO)c1c2c2ccc(OC)cc2n1C,active: 68.5%

# 2 compounds drawn at random from the list so far:
row,Compound,CPE inhibition
12,CCc1cc(CNC(=O)c2ccc3nc(Cc4ccc(OC)c(OC)c4)oc3c2)on1,inconclusive: 24%
20,O=C(Nc1ccc(S(=O)(=O)NC2=NCCCCC2)cc1)c1ccc(Cl)c([N+](=O)[O-])c1,inconclusive: 23.4%
